The list shows only some results of the screen, not a fair sample: it covers a few groups of compounds. Not every dose and run of a compound is shown. T/C: endpoint of the treated group in % of that of the vehicle group. Some entries give survivors of the animals treated and no T/C: the source files T/C as zero there, which appears to mark a toxic dose or a test without result, not a measured value. Some doses without a T/C left all or most animals alive at the check, yet need not have been tolerated: survival well below the control is almost never listed, so the zero probably covers shortened survival too. Counts of survivors are from the toxicity check (mostly the fifth day) where no day follows; animals may have died later. Schedules are NCI's codes, read here as Q, the interval in days (D) or hours (H), X, the number of doses. For survival time, this PubChem deposit counts one and a half times the control or more as active, and values a quarter to a half above the control carry no call in these data; other NCI protocols may use other cut-offs. Some entries were tested several times; their values stand side by side, smallest first. Some T/C values are marked as having no survivor count here; that says nothing about deaths at the dose. Some schedules carry Z or #; the key to these is not given. Some T/C values carry the count of animals alive at the toxicity check (mostly the fifth day); without a count or a note in brackets, all were alive then.
System: L1210 leukemia ip in BDF1 mice, survival T/C
Test: NCI In Vivo Anticancer Drug Screen. Data for tumor model L1210 Leukemia (intraperitoneal) in B6D2F1 (BDF1) mice
Conditions: T/C endpoint: mean survival time, higher T/C = longer survival
[1] = dose: 100.0 mg/kg/injection, schedule: Q01DX009 (ip), vehicle: saline with Tween-80
[2] = dose: 200.0 mg/kg/injection, schedule: Q04DX003 (ip), vehicle: saline with Tween-80
[3] = dose: 400.0 mg/kg/injection, schedule: Q04DX003 (ip), vehicle: saline with Tween-80
[4] = dose: 50.0 mg/kg/injection, schedule: Q01DX001 (ip), vehicle: saline
[5] = dose: 100.0 mg/kg/injection, schedule: Q01DX001 (ip), vehicle: saline
[6] = dose: 200.0 mg/kg/injection, schedule: Q01DX001 (ip), vehicle: saline
[7] = dose: 400.0 mg/kg/injection, schedule: Q01DX001 (ip), vehicle: saline
[8] = dose: 25.0 mg/kg/injection, schedule: Q04DX003 (ip), vehicle: saline with Tween-80
[9] = dose: 100.0 mg/kg/injection, schedule: Q01DX001 (ip), vehicle: carboxymethylcellulose (CMC)
[10] = dose: 200.0 mg/kg/injection, schedule: Q01DX001 (ip), vehicle: carboxymethylcellulose (CMC)
[11] = dose: 400.0 mg/kg/injection, schedule: Q01DX001 (ip), vehicle: carboxymethylcellulose (CMC)

In the case of `O=C(Nc1ccccc1)N(CCCl)CCCl`, the T/C [1] is reported as 96 % of control, the T/C (dose: 100.0 mg/kg/injection, schedule: Q04DX003 (ip), vehicle: saline with Tween-80) is reported as 97 % of control and the T/C (dose: 200.0 mg/kg/injection, schedule: Q01DX009 (ip), vehicle: saline with Tween-80) is reported as 98 % of control. For the same compound, the T/C [2] was 92 % of control, the survivor count (dose: 400.0 mg/kg/injection, schedule: Q01DX009 (ip), vehicle: saline with Tween-80) was 0 of 6 and the survivor count [3] was 1 of 6.

With `O=[N+]([O-])OCC(O[N+](=O)[O-])C(CO[N+](=O)[O-])O[N+](=O)[O-]` (stereo unspecified) the T/C [4] was 92 % of control [survivor count not shown], the T/C [5] was 100 % of control [survivor count not shown] and the T/C [6] was 96 % of control [survivor count not shown]. For the same compound, the T/C [7] was 95 % of control [survivor count not shown].

In the case of `ClP1(Cl)=NP(Cl)(Cl)=NP(Cl)(Oc2ccccc2)=N1` (stereo unspecified), the T/C (dose: 6.25 mg/kg/injection, schedule: Q04DX003 (ip), vehicle: saline with Tween-80) is reported as 98 % of control, the T/C (dose: 12.5 mg/kg/injection, schedule: Q04DX003 (ip), vehicle: saline with Tween-80) is reported as 93 % of control and the T/C [8] is reported as 98 % of control.

For `Clc1ccc(P(Cl)Cl)cc1`, the T/C (dose: 25.0 mg/kg/injection, schedule: Q01DX009 (ip), vehicle: saline with Tween-80) was 98 % of control, the T/C [8] was 96 % of control and the T/C (dose: 50.0 mg/kg/injection, schedule: Q01DX009 (ip), vehicle: saline with Tween-80) was 96 % of control. For the same compound, the T/C (dose: 50.0 mg/kg/injection, schedule: Q04DX003 (ip), vehicle: saline with Tween-80) was 98 % of control, the T/C [1] was 93 % of control and the T/C (dose: 100.0 mg/kg/injection, schedule: Q04DX003 (ip), vehicle: saline with Tween-80, evaluated on day 20) was 93 % of control. The T/C (dose: 100.0 mg/kg/injection, schedule: Q04DX003 (ip), vehicle: saline with Tween-80, evaluated on day 30) was 107 % of control, the survivor count [2] was 4 of 6 and the survivor count [3] was 1 of 6.

In the case of `CN(C)P(=O)(Cl)Cl`, the T/C (dose: 100.0 mg/kg/injection, schedule: Q04DX002 (ip), vehicle: saline) is reported as 101 % of control [survivor count not shown] and the T/C (dose: 200.0 mg/kg/injection, schedule: Q04DX002 (ip), vehicle: saline) is reported as 93 % of control [survivor count not shown].

For `O=C(O)c1c([N+](=O)[O-])cc([N+](=O)[O-])cc1[N+](=O)[O-]`, the T/C (dose: 75.0 mg/kg/injection, schedule: Q01DX001 (ip), vehicle: saline) was 96 % of control [survivor count not shown], the T/C (dose: 150.0 mg/kg/injection, schedule: Q01DX001 (ip), vehicle: saline) was 96 % of control [survivor count not shown] and the T/C (dose: 300.0 mg/kg/injection, schedule: Q01DX001 (ip), vehicle: saline) was 94 % of control [survivor count not shown].

In the case of `Cc1ccc(SC2CCCC2Cl)cc1` (stereo unspecified), the T/C [9] is reported as 96 % of control, the T/C [10] is reported as 96 % of control and the T/C [11] is reported as 98 % of control.

In the case of `O=P(Nc1ccccn1)(N1CC1)N1CC1`, the T/C (dose: 2.5 mg/kg/injection, schedule: Q01DX015 (ip), vehicle: saline) is reported as 164 % of control, the T/C (dose: 2.9 mg/kg/injection, schedule: Q01DX015 (ip), vehicle: saline) is reported as 123 % of control and the T/C (dose: 4.4 mg/kg/injection, schedule: Q01DX015 (ip), vehicle: saline) is reported as 147 % of control. The T/C (dose: 5.0 mg/kg/injection, schedule: Q01DX015 (ip), vehicle: saline) was 179 % of control, the T/C (dose: 6.0 mg/kg/injection, schedule: Q01DX001 (ip), vehicle: saline) was 122 % of control and the T/C (dose: 6.25 mg/kg/injection, schedule: Q01DX001 (ip), vehicle: saline) was 108 % of control. For the same compound, the T/C (dose: 6.6 mg/kg/injection, schedule: Q01DX015 (ip), vehicle: saline) was 178 % of control, the T/C (dose: 10.0 mg/kg/injection, schedule: Q01DX001 (ip), vehicle: saline) was 137 % of control and the T/C (dose: 10.0 mg/kg/injection, schedule: Q01DX015 (ip), vehicle: saline) was 194, 214, 271 % of control. For the same compound, the T/C (dose: 12.0 mg/kg/injection, schedule: Q01DX001 (ip), vehicle: saline) was 131 % of control, the T/C (dose: 12.5 mg/kg/injection, schedule: Q01DX001 (ip), vehicle: saline) was 124 % of control and the T/C (dose: 16.0 mg/kg/injection, schedule: Q01DX001 (ip), vehicle: saline) was 157 % of control. The T/C (dose: 16.0 mg/kg/injection, schedule: Q01DX015 (ip), vehicle: saline) was 164 % of control, the T/C (dose: 20.0 mg/kg/injection, schedule: Q01DX015 (ip), vehicle: saline) was 120 % of control and the T/C (dose: 24.0 mg/kg/injection, schedule: Q01DX001 (ip), vehicle: saline) was 156 and 162 % of control. The T/C (dose: 24.0 mg/kg/injection, schedule: Q01DX015 (ip), vehicle: saline) was 113 % of control [5 of 6 alive], the T/C (dose: 25.0 mg/kg/injection, schedule: Q01DX001 (ip), vehicle: saline) was 161 % of control and the T/C (dose: 36.0 mg/kg/injection, schedule: Q01DX001 (ip), vehicle: saline) was 190 % of control. The T/C (dose: 36.0 mg/kg/injection, schedule: Q01DX015 (ip), vehicle: saline) was 86 % of control, the survivor count (dose: 40.0 mg/kg/injection, schedule: Q01DX015 (ip), vehicle: saline) was 3 of 6 and the T/C [4] was 126 [3 of 4 alive] and 173 % of control. For the same compound, the T/C [5] was 164 % of control [4 of 6 alive], the survivor count [5] was 3 of 4 and the survivor count [6] was 1 of 4.

`NN/C(N)=N/[N+](=O)[O-]` was tested, and the T/C (dose: 5.0 mg/kg/injection, schedule: Q01DX Z (oral), vehicle: methylcellulose (MC)) was 93 % of control [survivor count not shown], the T/C (dose: 10.0 mg/kg/injection, schedule: Q01DX Z (oral), vehicle: methylcellulose (MC)) was 102 % of control [survivor count not shown] and the T/C (dose: 15.0 mg/kg/injection, schedule: Q01DX Z (ip), vehicle: methylcellulose (MC)) was 102 % of control [survivor count not shown]. For the same compound, the T/C (dose: 15.0 mg/kg/injection, schedule: Q01DX Z (oral), vehicle: methylcellulose (MC)) was 97 % of control [survivor count not shown] and the T/C (dose: 30.0 mg/kg/injection, schedule: Q01DX Z (ip), vehicle: methylcellulose (MC)) was 95 % of control [survivor count not shown].

In the case of `CCN(CC)CCOC(=O)C(O)(c1cccc(C)c1C)C1CCCCC1` (stereo unspecified), the T/C (dose: 75.0 mg/kg/injection, schedule: Q01DX001 (ip), vehicle: other) is reported as 100 % of control.

With `COC(=O)C(C)(C)C(OP(C)(=O)OC)=C(C)C` (stereo unspecified) the T/C (dose: 5.0 mg/kg/injection, schedule: Q01DX001 (ip), vehicle: saline) was 98 % of control [survivor count not shown].

In the case of `O=Cc1ccc(N(CCI)CCI)cc1`, the T/C (dose: 50.0 mg/kg/injection, schedule: Q01DX001 (ip), vehicle: carboxymethylcellulose (CMC)) is reported as 114 % of control, the T/C [9] is reported as 118 % of control and the T/C [10] is reported as 103 % of control. The T/C [11] was 108 % of control.

`COC(=O)CCc1ccc(N(CCCl)CCCl)cc1` was tested, and the T/C (dose: 25.0 mg/kg/injection, schedule: Q01DX009 (ip), vehicle: Klucel (hydroxypropylcellulose) (HPC)) was 108 % of control, the T/C (dose: 50.0 mg/kg/injection, schedule: Q01DX009 (ip), vehicle: Klucel (hydroxypropylcellulose) (HPC)) was 109 % of control [5 of 6 alive] and the survivor count (dose: 100.0 mg/kg/injection, schedule: Q01DX009 (ip), vehicle: Klucel (hydroxypropylcellulose) (HPC)) was 0 of 6. For the same compound, the T/C (dose: 100.0 mg/kg/injection, schedule: Q04DX003 (ip), vehicle: Klucel (hydroxypropylcellulose) (HPC)) was 106 % of control, the survivor count (dose: 200.0 mg/kg/injection, schedule: Q01DX009 (ip), vehicle: Klucel (hydroxypropylcellulose) (HPC)) was 4 of 6 and the T/C (dose: 200.0 mg/kg/injection, schedule: Q04DX003 (ip), vehicle: Klucel (hydroxypropylcellulose) (HPC)) was 120 % of control. For the same compound, the survivor count (dose: 400.0 mg/kg/injection, schedule: Q01DX009 (ip), vehicle: Klucel (hydroxypropylcellulose) (HPC)) was 0 of 6 and the T/C (dose: 400.0 mg/kg/injection, schedule: Q04DX003 (ip), vehicle: Klucel (hydroxypropylcellulose) (HPC)) was 112 % of control [5 of 6 alive].

For `CCOP1OC(C)C(C)(C)O1` (stereo unspecified), the T/C [5] was 102 % of control, the T/C [6] was 104 % of control and the T/C [7] was 98 % of control.

— PubChem BioAssay AID248 (DTP/NCI, 2004)
